Data as given in article PMC8466577.

By UniProt entry, the sequences of proteins in these tests, tags left out.
UniProt P09429: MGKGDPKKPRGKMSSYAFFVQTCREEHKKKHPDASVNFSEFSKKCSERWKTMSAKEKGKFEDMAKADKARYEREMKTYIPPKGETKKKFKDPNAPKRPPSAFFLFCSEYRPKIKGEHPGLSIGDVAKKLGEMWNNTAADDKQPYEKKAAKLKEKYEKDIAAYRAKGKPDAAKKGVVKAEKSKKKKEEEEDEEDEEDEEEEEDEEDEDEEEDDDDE

These binders were tested against HMGB1 (human (endogenous in SKOV-3 and PC-3)) (UniProt P09429) (assay: affinity purification with mass spectrometry; anti-HMGB1 (Abcam ab18256) crosslinked to Protein G-Dynal beads; SKOV-3 and PC-3 whole-cell lysates (three IPs each) and nuclear and cytoplasmic fractions (one each), Benzonase-treated; 4 h at 4 °C; washes with 150 mM NaCl, 0.1% NP-40; IgG control; SAINT score cut-off 0.7).

binding	Binder
binds	SEPT10 (protein, UniProt Q9P0V9 1-454) MASSEVARHLLFQSHMATKTTCMSSQGSDDEQIKRENIRSLTMSGHVGFESLPDQLVNRSIQQGFCFNILCVGETGIGKSTLIDTLFNTNFEDYESSHFCPNVKLKAQTYELQESNVQLKLTIVNTVGFGDQINKEESYQPIVDYIDAQFEAYLQEELKIKRSLFTYHDSRIHVCLYFISPTGHSLKTLDLLTMKNLDSKVNIIPVIAKADTVSKTELQKFKIKLMSELVSNGVQIYQFPTDDDTIAKVNAAMNGQLPFAVVGSMDEVKVGNKMVKARQYPWGVVQVENENHCDFVKLREMLICTNMEDLREQTHTRHYELYRRCKLEEMGFTDVGPENKPVSVQETYEAKRHEFHGERQRKEEEMKQMFVQRVKEKEAILKEAERELQAKFEHLKRLHQEERMKLEEKRRLLEEEIIAFSKKKATSEIFHSQSFLATGSNLRKDKDRKNSNFL
binds	ZNF512B (protein, UniProt Q96KM6 1-892) MTDPFCVGGRRLPGSSKSGPGKDGSRKEVRLPMLHDPPKMGMPVVRGGQTVPGQAPLCFDPGSPASDKTEGKKKGRPKAENQALRDIPLSLMNDWKDEFKAHSRVKCPNSGCWLEFPSIYGLKYHYQRCQGGAISDRLAFPCPFCEAAFTSKTQLEKHRIWNHMDRPLPASKPGPISRPVTISRPVGVSKPIGVSKPVTIGKPVGVSKPIGISKPVSVGRPMPVTKAIPVTRPVPVTKPVTVSRPMPVTKAMPVTKPITVTKSVPVTKPVPVTKPITVTKLVTVTKPVPVTKPVTVSRPIVVSKPVTVSRPIAISRHTPPCKMVLLTRSENKAPRATGRNSGKKRAADSLDTCPIPPKQARPENGEYGPSSMGQSSAFQLSADTSSGSLSPGSRPSGGMEALKAAGPASPPEEDPERTKHRRKQKTPKKFTGEQPSISGTFGLKGLVKAEDKARVHRSKKQEGPGPEDARKKVPAAPITVSKEAPAPVAHPAPGGPEEQWQRAIHERGEAVCPTCNVVTRKTLVGLKKHMEVCQKLQDALKCQHCRKQFKSKAGLNYHTMAEHSAKPSDAEASEGGEQEERERLRKVLKQMGRLRCPQEGCGAAFSSLMGYQYHQRRCGKPPCEVDSPSFPCTHCGKTYRSKAGHDYHVRSEHTAPPPEEPTDKSPEAEDPLGVERTPSGRVRRTSAQVAVFHLQEIAEDELARDWTKRRMKDDLVPETARLNYTRPGLPTLNPQLLEAWKNEVKEKGHVNCPNDCCEAIYSSVSGLKAHLASCSKGAHLAGKYRCLLCPKEFSSESGVKYHILKTHAENWFRTSADPPPKHRSQDSLVPKKEKKKNLAGGKKRGRKPKERTPEEPVAKLPPRRDDWPPGCRDKGARGSTGRKVGVSKAPEK

The next lines start with the binder.

Binder	binding
RRS1 (protein, UniProt Q15050 1-365) MEGQSVEELLAKAEQDEAEKLQRITVHKELELQFDLGNLLASDRNPPTGLRCAGPTPEAELQALARDNTQLLINQLWQLPTERVEEAIVARLPEPTTRLPREKPLPRPRPLTRWQQFARLKGIRPKKKTNLVWDEVSGQWRRRWGYQRARDDTKEWLIEVPGNADPLEDQFAKRIQAKKERVAKNELNRLRNLARAHKMQLPSAAGLHPTGHQSKEELGRAMQVAKVSTASVGRFQERLPKEKVPRGSGKKRKFQPLFGDFAAEKKNQLELLRVMNSKKPQLDVTRATNKQMREEDQEEAAKRRKMSQKGKRKGGRQGPGGKRKGGPPSQGGKRKGGLGGKMNSGPPGLGGKRKGGQRPGGKRRK	binds
SEPT8 (protein, UniProt Q92599 1-483) MAATDLERFSNAEPEPRSLSLGGHVGFDSLPDQLVSKSVTQGFSFNILCVGETGIGKSTLMNTLFNTTFETEEASHHEACVRLRPQTYDLQESNVQLKLTIVDAVGFGDQINKDESYRPIVDYIDAQFENYLQEELKIRRSLFDYHDTRIHVCLYFITPTGHSLKSLDLVTMKKLDSKVNIIPIIAKADTISKSELHKFKIKIMGELVSNGVQIYQFPTDDEAVAEINAVMNAHLPFAVVGSTEEVKVGNKLVRARQYPWGVVQVENENHCDFVKLREMLIRVNMEDLREQTHSRHYELYRRCKLEEMGFQDSDGDSQPFSLQETYEAKRKEFLSELQRKEEEMRQMFVNKVKETELELKEKERELHEKFEHLKRVHQEEKRKVEEKRRELEEETNAFNRRKAAVEALQSQALHATSQQPLRKDKDKKNRSDIGAHQPGMSLSSSKVMMTKASVEPLNCSSWWPAIQCCSCLVRDATWREGFL	binds

Results are given in words; binding and its absence hold for the method and conditions named. In cells and extracts the contact can be indirect. These calls come from enrichment with a bait or labelling near it, and not all partners need be listed.
